For 39 compounds, suppression of toxicity results are on record in PubChem BioAssay.

Several values for one entry are separate records, joined by “and”; a condition that tells them apart may be missing. Equal values may be shown once. The list shows a part of the results. Entries with a potency or affinity are not part of this list. Where no call is shown, the source marks the result inconclusive.

The test can be described thus: Drosophila SCA1 whole organism dose response for polyglutamine toxicity reduction (AID 1595). The conditions noted are these: Drosophila SCA1 polyglutamine model, at 1 µM, stronger effect = higher value.
For the compound `O=C1c2c(O)ccc(O)c2C(=O)c2c(NCCNCCO)ccc(NCCNCCO)c21`, the suppression of toxicity is 0.
In turn, `CC(=O)OCC(=O)[C@@]1(O)CCC2C3CCC4=CC(=O)C=CC4(C)C3[C@@H](O)C[C@@]21C` (some centres undefined) yielded a suppression of toxicity of 0.
For the compound `Cc1cc(NS(=O)(=O)c2ccc(N)cc2)no1`, the suppression of toxicity amounted to 4.29.
For `CCCC(CCC)C(=O)O`, the suppression of toxicity is 0.
To `Nc1ccn(C2O[C@H](CO)[C@@H](O)[C@@H]2O)c(=O)n1` (some centres undefined) belongs 1.43; to `CN(C)C(=O)Oc1cccc([N+](C)(C)C)c1`, 5.71 and 1.43.
`CNC[C@@H](O)c1ccc(O)c(O)c1` registered a suppression of toxicity of 14.3.
`O=c1cc[nH]c(=S)[nH]1`: the suppression of toxicity came out at 5.75.
`CCCNC(=O)NS(=O)(=O)c1ccc(Cl)cc1` had a suppression of toxicity of 1.43.
To `COC(=O)Nc1nc2ccc(C(=O)c3ccccc3)cc2[nH]1` belongs 0; to `NCC(O)CC(=O)O` (centres undefined), 2.86; to `NCC1OC(OC2C(N)CC(N)C(OC3OC(CO)C(O)C(N)C3O)C2O)C(N)C(O)C1O` (centres undefined), 0.
`CCN(CC)CCCC(C)Nc1ccnc2cc(Cl)ccc12` (centres undefined) returned a suppression of toxicity of 7.14.
The compound `Cc1cccc(CN2CCN(C(c3ccccc3)c3ccc(Cl)cc3)CC2)c1` (centres undefined) yielded a suppression of toxicity of 30.
Under `CCCCCCCCCCCCC[N+](C)(C)Cc1ccccc1` stands 4.29; under `CCCCCCc1ccc(O)cc1O`, 5.74; under `CC1=NN(c2ccccc2)C(=O)C1`, 2.85.
Regarding `COC(=O)[C@H]1[C@H]2C[C@H]3c4[nH]c5cc(OC)ccc5c4CCN3C[C@H]2C[C@@H](OC(=O)c2cc(OC)c(OC)c(OC)c2)[C@@H]1OC`, the suppression of toxicity came out at 4.29.
The compound `CN1C2CC[C@@H]1CC(OC(=O)[C@H](CO)c1ccccc1)C2` (some centres undefined) gave a suppression of toxicity of 4.29.
On to `O=C1c2c(O)cccc2Cc2cccc(O)c21`, for which the suppression of toxicity is 0.
Under `Nc1nc2c(c(=O)[nH]1)N(C=O)C(CNc1ccc(C(=O)N[C@@H](CCC(=O)O)C(=O)O)cc1)CN2` (some centres undefined) stands 2.86; under `CCCN(CCC)S(=O)(=O)c1ccc(C(=O)O)cc1`, 4.29; under `Cc1c(N(C)CS(=O)(=O)O)c(=O)n(-c2ccccc2)n1C`, 0.
Under `CC1=CC(=O)c2ccccc2C1=O` stands 0; under `CCN(CC)CCNC(=O)c1ccc(N)cc1`, 1.43; under `C#C[C@]1(O)CCC2C3CCC4=CC(=O)CC[C@@H]4C3CC[C@@]21C` (some centres undefined), 10.
The compound `CC(C)=CCC/C(C)=C/CO` returned a suppression of toxicity of 2.85.
With `O=C(O)c1cc2cc(Cc3cccnc3)ccc2o1`, the suppression of toxicity was 5.71.
`CC1CCC(NC(=O)N(CCCl)N=O)CC1` (centres undefined) came in with a suppression of toxicity of 10.
Under `C1CCN2C[C@H]3C[C@H](CN4CCCC[C@@H]34)[C@H]2C1` stands 0; under `Nc1ncnc2c1ncn2[C@@H]1O[C@H](CO)[C@@H](O)[C@@H]1O`, 1.43; under `CCC(C)CCCCC(=O)NC(CCN)C(=O)NC(C(=O)NC(CCN)C(=O)NC1CCNC(=O)C(C(C)O)NC(=O)C(CCN)NC(=O)C(CCN)NC(=O)C(CC(C)C)NC(=O)C(Cc2ccccc2)NC(=O)C(CCN)NC1=O)C(C)O` (centres undefined), 2.85.
The compound `CC(COc1ccccc1)N(CCCl)Cc1ccccc1` (centres undefined) registered a suppression of toxicity of 0.
On to `Nc1c2c(nc3ccccc13)CCCC2`, for which the suppression of toxicity turned out to be 8.57.
`CC(C)Cc1ccc(C(C)C(=O)O)cc1` (centres undefined): the suppression of toxicity came out at 0.
The compound `COCCc1ccc(OCC(O)CNC(C)C)cc1` (centres undefined) returned a suppression of toxicity of 0.
Take `C/C=C(/C(=C/C)c1ccc(O)cc1)c1ccc(O)cc1`: the suppression of toxicity is 1.43.
In turn, `C=C[C@H]1CN2CC[C@H]1C[C@@H]2[C@H](O)c1ccnc2ccc(OC)cc12` came in with a suppression of toxicity of 1.43.
In turn, `CC1(C)O[C@@H]2CC3C4C[C@H](F)C5=CC(=O)C=CC5(C)C4C(O)CC3(C)[C@]2(C(=O)CO)O1` (some centres undefined) returned a suppression of toxicity of 0.
